According to paper PMC1800349:
Results are given in words; binding and its absence hold for the method and conditions named. In cells and extracts the contact can be indirect. A result given as binding can be weak or reduced; the word gives no strength. Sequences can lack the tags named with a protein.

Protein sequences, listed by entry. Tags and fused reporters are not part of them. Lines headed by an entry give the natural chain unless they say otherwise; changes in a name come on top.
UniProt Q924X6: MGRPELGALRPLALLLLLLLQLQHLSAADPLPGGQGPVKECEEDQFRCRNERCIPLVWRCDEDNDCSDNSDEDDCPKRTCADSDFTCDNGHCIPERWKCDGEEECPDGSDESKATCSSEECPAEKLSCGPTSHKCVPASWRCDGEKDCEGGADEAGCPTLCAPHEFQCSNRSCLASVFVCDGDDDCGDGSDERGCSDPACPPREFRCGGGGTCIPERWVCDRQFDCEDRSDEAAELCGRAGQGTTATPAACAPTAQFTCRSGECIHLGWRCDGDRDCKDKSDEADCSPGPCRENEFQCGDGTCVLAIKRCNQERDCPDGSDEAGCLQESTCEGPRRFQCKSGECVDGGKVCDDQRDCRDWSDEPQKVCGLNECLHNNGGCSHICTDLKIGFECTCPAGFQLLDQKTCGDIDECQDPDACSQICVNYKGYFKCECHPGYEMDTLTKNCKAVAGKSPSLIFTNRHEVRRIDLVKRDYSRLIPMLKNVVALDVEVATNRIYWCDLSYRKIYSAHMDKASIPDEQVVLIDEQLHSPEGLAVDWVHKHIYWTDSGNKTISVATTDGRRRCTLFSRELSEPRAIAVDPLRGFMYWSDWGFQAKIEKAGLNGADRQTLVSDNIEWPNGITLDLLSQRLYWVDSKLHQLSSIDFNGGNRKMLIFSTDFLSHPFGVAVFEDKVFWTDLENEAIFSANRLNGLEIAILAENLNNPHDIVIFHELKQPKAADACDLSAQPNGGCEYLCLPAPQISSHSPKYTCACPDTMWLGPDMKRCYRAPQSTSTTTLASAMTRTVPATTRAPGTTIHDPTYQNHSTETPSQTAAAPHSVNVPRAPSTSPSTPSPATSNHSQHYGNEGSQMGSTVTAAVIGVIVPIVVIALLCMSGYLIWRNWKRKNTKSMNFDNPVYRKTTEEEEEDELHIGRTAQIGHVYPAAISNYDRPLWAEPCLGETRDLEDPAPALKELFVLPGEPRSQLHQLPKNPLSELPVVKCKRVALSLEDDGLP

Target: FLAG-ApoER2(R774L) (mouse) (UniProt Q924X6)
Experiment: co-IP; FLAG-tagged ApoER2 co-expressed in COS7 cells with GFP-tagged Pafah1b α subunits; immunoprecipitated with FLAG antibodies, blotted with GFP antibodies

B1: GFP-tagged Pafah1b2 (protein, UniProt Q61206 1-229)
chain: MSQGDSNPAAIPHAAEDIQGDDRWMSQHNRFVLDCKDKEPDVLFVGDSMVQLMQQYEIWRELFSPLHALNFGIGGDTTRHVLWRLKNGELENIKPKVIVVWVGTNNHENTAEEVAGGIEAIVQLINTRQPQAKIIVLGLLPRGEKPNPLRQKNAKVNQLLKVSLPKLANVQLLDIDGGFVHSDGAISCHDMFDFLHLTGGGYAKICKPLHELIMQLLEETPEEKQTTIA
With B1 the binding was “binds”.

B2: GFP-tagged Pafah1b3 (protein, UniProt Q61205 1-232)
chain: MSGEGENPASKPTPVQDVQGDGRWMSLHHRFVADSKDKEPEVVFIGDSLVQLMHQCEIWRELFSPLHALNFGIGGDSTQHVLWRLENGELEHIRPKIVVVWVGTNNHSHTAEQVTGGIKAIVQLVNKLQPQARVVVLGLLPRGQHPNPLREKNRQVNELVRAALAGYPRAHFLDADPGFVHSDGTISHHDMYDYLHLSRLGYTPVCRALHSLLLRLLAQDQGQGIPLPETAS
B2 was tested, and the binding was “binds”.
